In the supplement of paper PMC12823440, “Inhibitors supercharge kinase turnover through native proteolytic circuits” (Nature, 2025):
Where a name gives a salt, the structure may show the parent alone. The list shows a part of the results. The calls rarely recur for the same compound in another form.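 Kinases, fused to nanoluciferase, were expressed in K562 cells; luminescence was measured every 4 h from 2 to 18 h as percent of control (DMSO = 100%, positive control = 0%). A time point is decreased if signal falls significantly (2 sigma). Hits were called by the authors by a rule that is not shown; the count of time points alone does not decide it.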

Amino acid sequences for entries named in this document (tags omitted).
UniProt P50750, whole entry: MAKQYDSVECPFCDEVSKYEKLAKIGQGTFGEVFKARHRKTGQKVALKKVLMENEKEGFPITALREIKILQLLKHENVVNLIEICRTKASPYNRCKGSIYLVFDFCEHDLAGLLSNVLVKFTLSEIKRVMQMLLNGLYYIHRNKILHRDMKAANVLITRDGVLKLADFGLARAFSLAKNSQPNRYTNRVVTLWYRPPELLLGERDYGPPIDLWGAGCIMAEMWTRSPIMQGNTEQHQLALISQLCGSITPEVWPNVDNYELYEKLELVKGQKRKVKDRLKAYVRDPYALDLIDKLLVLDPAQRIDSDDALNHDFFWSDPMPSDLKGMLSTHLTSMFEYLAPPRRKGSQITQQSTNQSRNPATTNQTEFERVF

molecular target: CDK9 (UniProt P50750); experiment: number of time points (of 4; 2 h point missing) at which kinase-Nluc abundance scored as decreased, DMSO-normalised (count); higher = more persistent destabilization; conditions: K562; 2-18 h

| Compound | number of time points |
| --- | --- |
| CC(=O)N1CCC(c2cc(-c3ccc(NC(=O)c4cccn(-c5ccc(F)cc5)c4=O)cc3F)c3c(N)ncnn23)CC1 (0.5 µM) | 0 |
| CC(C)(C[C@H](N)C(=O)O)C(F)F [NV-5138 (hydrochloride)] (10 µM) | 0 |
| CC/C(=N\NC(=O)c1ccnc(NCCCN2CCOCC2)c1)c1ccc(Cl)cc1O (2.5 µM) | 0 |
| CC(C)CNc1ccnc(NCc2csc(-c3ccccc3)n2)n1 [KHS101 hydrochloride] (2.5 µM) | 0 |
| Nc1nccc(Oc2ccc(NC(=O)c3c[nH]cc(-c4ccc(F)cc4)c3=O)cc2F)c1Cl (10 µM) | 0 |
| Cc1nc(-c2cnn(C)c2)nc2c1[nH]c1ncc(-c3ccc(N4CCN(C)CC4)cc3)cc12 [GNE 220 (hydrochloride)] (10 µM) | 0 |
